Data on two substances can be found in PMC7565527, “Cryo-EM Structure of Heterologous Protein Complex Loaded Thermotoga Maritima Encapsulin Capsid” (Biomolecules, 2020).

The target of the experiment is T1, His-GFP-IDM1 (His-sfGFP fused at the N-terminus of IDM1) (Arabidopsis thaliana) (UniProt F4IXE7).
T1 sequence: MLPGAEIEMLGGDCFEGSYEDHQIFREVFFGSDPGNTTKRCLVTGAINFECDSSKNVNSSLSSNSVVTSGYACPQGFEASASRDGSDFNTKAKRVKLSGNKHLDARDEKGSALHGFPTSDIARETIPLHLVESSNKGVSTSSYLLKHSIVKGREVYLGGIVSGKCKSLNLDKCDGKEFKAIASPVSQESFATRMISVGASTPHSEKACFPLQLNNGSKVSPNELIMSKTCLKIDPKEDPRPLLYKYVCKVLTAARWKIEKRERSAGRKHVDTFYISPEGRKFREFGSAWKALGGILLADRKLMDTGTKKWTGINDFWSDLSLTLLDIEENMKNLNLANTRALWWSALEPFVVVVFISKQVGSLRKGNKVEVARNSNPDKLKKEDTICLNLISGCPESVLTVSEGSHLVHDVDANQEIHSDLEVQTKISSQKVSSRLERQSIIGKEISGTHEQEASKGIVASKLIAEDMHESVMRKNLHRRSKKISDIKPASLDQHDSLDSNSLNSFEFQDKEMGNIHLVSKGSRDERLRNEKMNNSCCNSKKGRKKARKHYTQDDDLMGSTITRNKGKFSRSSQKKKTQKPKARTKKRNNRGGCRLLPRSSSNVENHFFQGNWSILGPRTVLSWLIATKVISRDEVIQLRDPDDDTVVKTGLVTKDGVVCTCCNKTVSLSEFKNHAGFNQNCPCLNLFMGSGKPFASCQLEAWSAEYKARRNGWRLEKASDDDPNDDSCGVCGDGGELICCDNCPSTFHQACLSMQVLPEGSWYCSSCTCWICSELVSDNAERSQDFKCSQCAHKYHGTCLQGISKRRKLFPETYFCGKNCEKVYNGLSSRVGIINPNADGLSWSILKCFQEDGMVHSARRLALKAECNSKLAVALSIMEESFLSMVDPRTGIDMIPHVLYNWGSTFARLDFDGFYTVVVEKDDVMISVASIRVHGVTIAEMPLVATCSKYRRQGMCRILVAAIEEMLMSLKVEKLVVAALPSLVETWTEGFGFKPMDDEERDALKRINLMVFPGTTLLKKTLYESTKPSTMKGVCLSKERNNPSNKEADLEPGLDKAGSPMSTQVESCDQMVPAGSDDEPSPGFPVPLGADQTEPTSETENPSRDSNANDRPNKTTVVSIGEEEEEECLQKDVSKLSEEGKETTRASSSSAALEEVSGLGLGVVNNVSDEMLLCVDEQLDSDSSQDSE
Put plainly: co-purification (His-tag affinity, SDS-PAGE); IDM complex without encapsulin, coexpressed in insect cells, purified with the His-tag on the N-terminus of IDM1 (His-sfGFP-IDM1 as bait).

These are yes or no findings as the source states them, for the method shown. In cells and extracts the contact can be indirect. A result given as binding can be weak or reduced; the word gives no strength. Tags and fused reporters may be left off the sequences shown.

With HDP2 (Arabidopsis thaliana), the binding entry is reported as “binds”.

In the case of HDP1 (Arabidopsis thaliana), the binding result was “binds”.
